Consider 5 targets from the supplement of paper PMC6411743.

Protein sequences, listed by entry. Tags and fused reporters are not part of them. Lines headed by an entry give the natural chain unless they say otherwise; changes in a name come on top.
UniProt Q9H0U4: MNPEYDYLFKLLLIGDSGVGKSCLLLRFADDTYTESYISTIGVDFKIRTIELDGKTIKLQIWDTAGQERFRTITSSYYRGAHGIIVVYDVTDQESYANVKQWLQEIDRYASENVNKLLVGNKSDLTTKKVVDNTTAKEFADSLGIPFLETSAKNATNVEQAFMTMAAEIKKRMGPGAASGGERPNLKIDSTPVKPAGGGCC
UniProt Q9H1P3, whole entry: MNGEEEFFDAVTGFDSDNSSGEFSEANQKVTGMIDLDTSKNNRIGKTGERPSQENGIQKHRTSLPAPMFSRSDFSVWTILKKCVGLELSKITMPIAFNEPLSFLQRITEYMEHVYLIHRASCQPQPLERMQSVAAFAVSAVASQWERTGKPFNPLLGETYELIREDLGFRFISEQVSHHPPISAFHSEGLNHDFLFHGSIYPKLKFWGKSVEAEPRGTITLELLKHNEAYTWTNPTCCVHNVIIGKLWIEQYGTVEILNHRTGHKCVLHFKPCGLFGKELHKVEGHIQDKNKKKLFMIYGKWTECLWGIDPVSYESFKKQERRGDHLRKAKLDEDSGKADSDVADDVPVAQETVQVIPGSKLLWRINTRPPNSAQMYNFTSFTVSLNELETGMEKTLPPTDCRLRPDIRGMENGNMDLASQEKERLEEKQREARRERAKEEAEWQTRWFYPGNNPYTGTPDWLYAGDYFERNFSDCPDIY
UniProt Q9C0J8: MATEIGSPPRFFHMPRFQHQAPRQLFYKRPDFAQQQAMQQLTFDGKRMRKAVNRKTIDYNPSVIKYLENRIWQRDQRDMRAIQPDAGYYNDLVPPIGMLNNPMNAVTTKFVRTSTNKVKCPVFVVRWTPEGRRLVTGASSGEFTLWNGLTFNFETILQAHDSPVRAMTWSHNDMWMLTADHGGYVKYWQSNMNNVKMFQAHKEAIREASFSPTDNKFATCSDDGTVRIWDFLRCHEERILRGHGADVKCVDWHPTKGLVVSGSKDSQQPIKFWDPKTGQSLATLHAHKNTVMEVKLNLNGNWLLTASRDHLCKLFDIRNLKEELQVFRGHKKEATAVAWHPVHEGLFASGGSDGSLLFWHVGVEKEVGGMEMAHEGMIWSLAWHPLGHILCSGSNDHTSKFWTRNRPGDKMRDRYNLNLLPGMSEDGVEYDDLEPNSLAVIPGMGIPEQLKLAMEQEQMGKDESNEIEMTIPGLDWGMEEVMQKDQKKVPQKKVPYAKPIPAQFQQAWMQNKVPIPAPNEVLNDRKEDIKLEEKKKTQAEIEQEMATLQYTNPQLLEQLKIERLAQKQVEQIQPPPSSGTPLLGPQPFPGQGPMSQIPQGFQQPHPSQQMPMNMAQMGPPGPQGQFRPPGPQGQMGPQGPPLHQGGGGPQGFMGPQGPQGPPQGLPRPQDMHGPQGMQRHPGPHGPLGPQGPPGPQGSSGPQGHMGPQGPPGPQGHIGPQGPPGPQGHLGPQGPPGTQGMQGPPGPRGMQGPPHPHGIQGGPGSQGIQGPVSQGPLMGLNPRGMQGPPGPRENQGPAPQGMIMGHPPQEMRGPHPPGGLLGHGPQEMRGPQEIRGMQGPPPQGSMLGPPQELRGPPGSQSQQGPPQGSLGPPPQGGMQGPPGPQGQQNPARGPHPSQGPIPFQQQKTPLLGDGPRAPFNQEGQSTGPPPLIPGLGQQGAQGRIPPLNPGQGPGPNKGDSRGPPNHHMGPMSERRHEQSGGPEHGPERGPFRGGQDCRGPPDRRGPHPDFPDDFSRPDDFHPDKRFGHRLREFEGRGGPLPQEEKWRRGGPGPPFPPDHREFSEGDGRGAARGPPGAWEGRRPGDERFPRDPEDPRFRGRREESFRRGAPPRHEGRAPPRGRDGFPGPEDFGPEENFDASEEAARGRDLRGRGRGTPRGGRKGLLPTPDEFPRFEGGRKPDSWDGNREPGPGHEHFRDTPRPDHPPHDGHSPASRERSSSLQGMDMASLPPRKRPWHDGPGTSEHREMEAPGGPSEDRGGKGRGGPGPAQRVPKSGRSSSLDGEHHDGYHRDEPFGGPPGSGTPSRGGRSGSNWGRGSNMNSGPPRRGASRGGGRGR
UniProt Q9GZS1, whole entry: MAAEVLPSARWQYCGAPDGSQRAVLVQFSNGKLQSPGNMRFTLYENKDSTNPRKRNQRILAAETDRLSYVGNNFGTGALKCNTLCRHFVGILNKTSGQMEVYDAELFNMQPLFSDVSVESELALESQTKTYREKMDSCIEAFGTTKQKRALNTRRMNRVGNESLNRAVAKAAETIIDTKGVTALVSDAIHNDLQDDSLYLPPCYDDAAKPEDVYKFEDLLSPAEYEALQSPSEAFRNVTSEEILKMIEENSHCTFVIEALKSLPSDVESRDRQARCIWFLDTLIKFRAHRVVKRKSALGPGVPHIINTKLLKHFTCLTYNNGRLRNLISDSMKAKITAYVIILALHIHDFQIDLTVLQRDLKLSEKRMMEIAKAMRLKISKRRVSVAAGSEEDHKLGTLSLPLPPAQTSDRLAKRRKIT
UniProt Q9NPD3, whole entry: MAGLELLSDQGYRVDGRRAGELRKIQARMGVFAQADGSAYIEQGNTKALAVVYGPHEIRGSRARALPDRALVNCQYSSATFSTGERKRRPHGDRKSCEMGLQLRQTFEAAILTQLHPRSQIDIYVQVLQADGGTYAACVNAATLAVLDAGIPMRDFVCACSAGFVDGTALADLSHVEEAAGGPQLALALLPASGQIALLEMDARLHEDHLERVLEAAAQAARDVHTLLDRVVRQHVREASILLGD

± gives the standard deviation of the averaged measurements. Some of the results follow.

Compound in this experiment: Nc1nc2c(ncn2[C@@H]2O[C@H](COP(=O)(O)OP(=O)(O)OP(=O)(O)O)[C@@H](O)[C@H]2O)c(=O)[nH]1 [guanosine triphosphate]
In words: NP40-soluble protein abundance relative to vehicle (solubility fold change) (ratio); higher = more soluble protein in presence of GTP. As for the experimental part: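 Solubility proteome profiling in Jurkat crude lysate. Lysate was treated with Mg-GTP (0.1-10 mM) for 10 min at room temperature and 3 min at 37 °C, then solubilised with 0.8% NP40 and benzonase, followed by ultracentrifugation. Proteins were quantified by TMT10 LC-MS/MS; the value is the NP40-soluble abundance relative to the NP40-processed vehicle, from 3 independent experiments.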

Take RAB1B (UniProt Q9H0U4): the NP40-soluble protein abundance is, setting by setting: (concentration: 0.1mM) 0.936 ± 0.021; (concentration: 0.5mM) 0.96 ± 0.029; (concentration: 1mM) 0.915 ± 0.034; (concentration: 2mM) 0.859 ± 0.047; (concentration: 4mM) 0.82 ± 0.053; (concentration: 6mM) 0.857 ± 0.06. Moreover, the NP40-soluble protein abundance was 0.842 ± 0.057 (concentration: 8mM) and 0.807 ± 0.072 (concentration: 10mM).

Take UniProt Q9H1P3 and related entries: the NP40-soluble protein abundance came to 0.93345 ± 0.00088 (concentration: 0.1mM); 0.909 ± 0.03 (concentration: 0.5mM); 0.8815 ± 0.0072 (concentration: 1mM); 0.851 ± 0.055 (concentration: 2mM); 0.926 ± 0.095 (concentration: 4mM); 0.885 ± 0.017 (concentration: 6mM). Besides, the NP40-soluble protein abundance is, setting by setting: (concentration: 8mM) 0.932 ± 0.061; (concentration: 10mM) 0.898 ± 0.035.

Take WDR33 (UniProt Q9C0J8): the NP40-soluble protein abundance is, setting by setting: (concentration: 0.1mM) 1.04 ± 0.028; (concentration: 0.5mM) 1.07 ± 0.043; (concentration: 1mM) 1.17 ± 0.044; (concentration: 2mM) 1.23 ± 0.059; (concentration: 4mM) 1.34 ± 0.071; (concentration: 6mM) 1.36 ± 0.1. Also, the NP40-soluble protein abundance came out at 1.46 ± 0.15 (concentration: 8mM) and 1.45 ± 0.2 (concentration: 10mM).

With UniProt Q9GZS1-2, the NP40-soluble protein abundance runs as follows: (concentration: 0.1mM) 1.04 ± 0.041; (concentration: 0.5mM) 1.04 ± 0.023; (concentration: 1mM) 1.06 ± 0.053; (concentration: 2mM) 1.08 ± 0.024; (concentration: 4mM) 1.13 ± 0.026; (concentration: 6mM) 1.17 ± 0.026. For the same target, the NP40-soluble protein abundance runs as follows: (concentration: 8mM) 1.18 ± 0.047; (concentration: 10mM) 1.18 ± 0.026.

As to EXOSC4 (UniProt Q9NPD3), the NP40-soluble protein abundance runs as follows: (concentration: 0.1mM) 1.07 ± 0.061; (concentration: 0.5mM) 0.988 ± 0.057; (concentration: 1mM) 0.996 ± 0.015; (concentration: 2mM) 0.994 ± 0.11; (concentration: 4mM) 1.12 ± 0.023; (concentration: 6mM) 1.12 ± 0.095. The NP40-soluble protein abundance reads like this: (concentration: 8mM) 1.11 ± 0.089; (concentration: 10mM) 1.16 ± 0.054.
